Experimental data published in PubChem BioAssay AID2662 (National Center for Advancing Translational Sciences (NCATS), 2010).
The campaign covered roughly 290,000 compounds. About 110 (0.038%) were called active. This list was built around the results that the source calls inconclusive (neither active nor inactive); the mix of calls is not that of the screen. The call rests on the fitted dose curve; in most records, active means well fitted inhibition curve with a large enough effect in the polarisation, with a control signal flat (not every such curve was filed as active); inconclusive means small, poorly fitted or top-dose-only effect, or effect the other way, or a change in a side signal; inactive means no such curve, though single readings can be large or run the other way; the % refers to the polarisation. Potencies of inconclusive entries are doubtful fits and often do not repeat. A note “side channel” means that the fit belongs to a control or component signal, not to the main read-out.

Sequences of proteins named here, by UniProt entry; tags and fusion partners are left off.
UniProt Q03164, whole entry, looked up: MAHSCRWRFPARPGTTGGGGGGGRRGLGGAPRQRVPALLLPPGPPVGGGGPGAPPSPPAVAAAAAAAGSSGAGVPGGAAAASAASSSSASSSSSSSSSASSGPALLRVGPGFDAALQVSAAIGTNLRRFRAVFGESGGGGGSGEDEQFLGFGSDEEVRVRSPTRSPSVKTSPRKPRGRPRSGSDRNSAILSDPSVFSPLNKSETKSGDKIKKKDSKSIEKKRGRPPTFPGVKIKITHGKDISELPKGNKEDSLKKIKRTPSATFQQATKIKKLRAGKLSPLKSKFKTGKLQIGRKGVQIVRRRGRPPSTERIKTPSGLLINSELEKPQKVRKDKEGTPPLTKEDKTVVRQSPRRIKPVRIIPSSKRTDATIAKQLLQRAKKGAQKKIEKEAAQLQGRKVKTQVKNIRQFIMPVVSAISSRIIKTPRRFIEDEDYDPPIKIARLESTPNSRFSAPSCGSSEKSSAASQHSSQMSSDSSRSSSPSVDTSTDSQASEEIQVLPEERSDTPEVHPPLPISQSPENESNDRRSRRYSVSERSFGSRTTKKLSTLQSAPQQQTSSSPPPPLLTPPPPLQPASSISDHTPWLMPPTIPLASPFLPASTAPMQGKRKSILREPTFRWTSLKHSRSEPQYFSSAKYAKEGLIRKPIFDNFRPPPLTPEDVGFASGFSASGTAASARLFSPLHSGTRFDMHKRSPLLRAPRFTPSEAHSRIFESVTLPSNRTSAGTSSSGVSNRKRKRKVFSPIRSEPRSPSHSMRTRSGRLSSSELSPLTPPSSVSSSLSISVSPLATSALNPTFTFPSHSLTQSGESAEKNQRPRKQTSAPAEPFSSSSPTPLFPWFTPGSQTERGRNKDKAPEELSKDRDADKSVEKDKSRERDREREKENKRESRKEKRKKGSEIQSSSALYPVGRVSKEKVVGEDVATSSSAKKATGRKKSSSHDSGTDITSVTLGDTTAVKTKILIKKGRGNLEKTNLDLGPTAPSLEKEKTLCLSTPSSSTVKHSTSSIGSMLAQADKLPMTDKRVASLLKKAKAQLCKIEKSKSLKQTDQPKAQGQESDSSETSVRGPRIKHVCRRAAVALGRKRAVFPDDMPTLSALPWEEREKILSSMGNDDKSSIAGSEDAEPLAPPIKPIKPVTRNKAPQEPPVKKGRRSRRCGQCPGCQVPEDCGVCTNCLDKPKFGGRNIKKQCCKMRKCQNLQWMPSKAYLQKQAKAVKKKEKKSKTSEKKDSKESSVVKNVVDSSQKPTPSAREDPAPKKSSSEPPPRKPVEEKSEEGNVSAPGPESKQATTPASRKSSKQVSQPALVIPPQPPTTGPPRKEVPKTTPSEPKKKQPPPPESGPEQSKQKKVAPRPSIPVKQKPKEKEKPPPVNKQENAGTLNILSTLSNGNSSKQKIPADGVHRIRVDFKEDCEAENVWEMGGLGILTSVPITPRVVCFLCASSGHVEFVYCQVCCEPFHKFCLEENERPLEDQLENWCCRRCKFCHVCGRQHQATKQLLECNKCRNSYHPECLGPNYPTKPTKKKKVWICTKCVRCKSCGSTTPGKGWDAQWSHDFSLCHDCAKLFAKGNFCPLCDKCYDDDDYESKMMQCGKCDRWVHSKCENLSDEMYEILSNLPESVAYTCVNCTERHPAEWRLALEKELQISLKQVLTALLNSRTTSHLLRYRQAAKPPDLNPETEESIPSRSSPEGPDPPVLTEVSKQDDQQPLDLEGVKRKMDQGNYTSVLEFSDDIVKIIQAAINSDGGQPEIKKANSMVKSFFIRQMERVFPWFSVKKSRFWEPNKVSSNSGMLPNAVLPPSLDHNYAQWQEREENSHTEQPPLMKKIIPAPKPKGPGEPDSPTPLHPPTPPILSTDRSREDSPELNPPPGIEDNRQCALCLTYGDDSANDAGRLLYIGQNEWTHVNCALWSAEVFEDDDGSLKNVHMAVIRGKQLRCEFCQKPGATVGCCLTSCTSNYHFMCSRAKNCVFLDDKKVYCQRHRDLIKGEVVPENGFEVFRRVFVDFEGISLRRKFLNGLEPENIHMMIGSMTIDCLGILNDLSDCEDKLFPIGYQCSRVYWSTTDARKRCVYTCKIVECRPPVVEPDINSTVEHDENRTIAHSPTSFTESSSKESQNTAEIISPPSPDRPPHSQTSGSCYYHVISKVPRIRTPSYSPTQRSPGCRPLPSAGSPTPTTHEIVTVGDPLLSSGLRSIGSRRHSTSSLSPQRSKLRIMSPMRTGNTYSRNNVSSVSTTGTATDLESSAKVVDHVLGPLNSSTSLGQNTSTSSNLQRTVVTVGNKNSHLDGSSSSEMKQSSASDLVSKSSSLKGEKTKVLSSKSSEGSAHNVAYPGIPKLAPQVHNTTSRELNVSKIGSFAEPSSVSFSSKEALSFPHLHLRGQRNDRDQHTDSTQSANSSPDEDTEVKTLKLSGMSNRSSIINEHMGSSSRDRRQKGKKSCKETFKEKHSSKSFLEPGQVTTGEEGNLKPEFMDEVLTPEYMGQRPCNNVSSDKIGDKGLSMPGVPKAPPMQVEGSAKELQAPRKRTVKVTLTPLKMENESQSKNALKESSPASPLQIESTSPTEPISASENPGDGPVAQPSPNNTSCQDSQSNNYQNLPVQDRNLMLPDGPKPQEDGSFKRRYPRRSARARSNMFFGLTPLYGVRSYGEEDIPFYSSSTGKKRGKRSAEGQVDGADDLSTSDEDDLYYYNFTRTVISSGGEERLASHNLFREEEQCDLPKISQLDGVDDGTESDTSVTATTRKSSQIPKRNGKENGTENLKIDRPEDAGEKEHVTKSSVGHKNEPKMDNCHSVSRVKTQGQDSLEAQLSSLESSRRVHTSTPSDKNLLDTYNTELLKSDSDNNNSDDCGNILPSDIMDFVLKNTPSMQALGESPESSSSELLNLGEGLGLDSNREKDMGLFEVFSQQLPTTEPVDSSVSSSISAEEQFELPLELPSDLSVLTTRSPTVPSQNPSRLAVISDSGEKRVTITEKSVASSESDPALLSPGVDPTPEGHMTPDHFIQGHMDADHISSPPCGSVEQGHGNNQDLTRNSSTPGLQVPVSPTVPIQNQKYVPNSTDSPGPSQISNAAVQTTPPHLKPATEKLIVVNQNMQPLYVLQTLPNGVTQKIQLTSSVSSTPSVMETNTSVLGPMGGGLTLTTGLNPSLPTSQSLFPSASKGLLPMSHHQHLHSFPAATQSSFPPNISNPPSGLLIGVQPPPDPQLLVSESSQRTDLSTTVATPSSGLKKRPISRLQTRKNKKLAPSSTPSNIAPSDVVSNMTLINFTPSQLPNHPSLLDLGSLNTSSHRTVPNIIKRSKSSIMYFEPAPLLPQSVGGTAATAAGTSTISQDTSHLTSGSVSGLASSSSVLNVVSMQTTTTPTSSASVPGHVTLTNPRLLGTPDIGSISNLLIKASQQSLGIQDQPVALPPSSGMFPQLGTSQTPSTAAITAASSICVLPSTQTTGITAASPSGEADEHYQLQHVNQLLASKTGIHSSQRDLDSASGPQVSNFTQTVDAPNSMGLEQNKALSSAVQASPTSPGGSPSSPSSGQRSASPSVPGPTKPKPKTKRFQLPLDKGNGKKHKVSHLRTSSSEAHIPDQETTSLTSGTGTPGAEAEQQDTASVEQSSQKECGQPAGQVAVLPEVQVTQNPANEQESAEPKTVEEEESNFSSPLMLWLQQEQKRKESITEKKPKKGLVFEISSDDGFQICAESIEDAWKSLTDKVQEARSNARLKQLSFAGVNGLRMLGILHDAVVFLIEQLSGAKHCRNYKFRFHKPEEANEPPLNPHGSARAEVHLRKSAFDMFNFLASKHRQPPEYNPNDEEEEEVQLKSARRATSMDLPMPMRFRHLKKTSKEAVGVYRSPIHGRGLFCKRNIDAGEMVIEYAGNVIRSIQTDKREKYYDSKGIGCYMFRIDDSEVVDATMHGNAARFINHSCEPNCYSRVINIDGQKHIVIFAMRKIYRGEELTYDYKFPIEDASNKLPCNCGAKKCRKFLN

Target: Histone-lysine N-methyltransferase 2A (Homo sapiens) (UniProt Q03164)
Experiment: qHTS Fluorescence Polarization Assay for Inhibitors of MLL CXXC domain - DNA interaction
Details: MLL-CXXC / FITC-HOXA9 DNA fluorescence polarization; activity change, negative = inhibition: at 115 µM (top of the series)
In short: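 Steps: dispense CXXC domain solution (7 uM) → pin compounds or unlabeled HOX-A9 DNA control → 5 min ambient → add FLSN-HOX-A9 solution (50 nM) → spin → 30 min ambient → fluorescence polarization. Tris pH 7.5/NaCl/DTT/BSA buffer.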
Potency means the concentration at half of the fitted maximal effect.

Compound | Potency | activity change, negative = inhibition
NS(=O)(=O)c1cccc(NC(=O)c2ccno2)c1 | inconclusive: 1.58 µM [fluorescent, side channel, full curve] | 
O=C(c1ccc(Br)s1)N1CCN(c2ccccn2)CC1 | inconclusive: 14.1 µM [quencher, side channel, single point] | 
CC1(C)C(/C=C/C=C/C=C/C=C2\N(CCCCS(=O)(=O)O)c3ccc4ccccc4c3C2(C)C)=[N+](CCCCS(=O)(=O)[O-])c2ccc3ccccc3c21 |  | inactive: -22.4%
CCCCCNc1nc(-c2ccccc2)nc(-n2ccnc2)n1 |  | inactive: 3.31%
CCOC(=O)c1cn(CC)c2ccc(S(=O)(=O)N3CCC(C)CC3)cc2c1=O |  | inactive: -12.2%
Cc1ccc(-c2csc(NC(=O)CSc3nc4ccccc4c(=O)n3CCCN(C)C)n2)cc1 | inconclusive: 63.1 µM [quencher, side channel, single point] | 
O=C(Nc1ccon1)c1ccc(Br)s1 | inconclusive: 15.8 µM [quencher, side channel, partial curve] | 
O=C(NC(=S)NNC(=O)c1cccs1)c1ccccc1 | inconclusive: 7.94 µM [inhibitor, full curve, poor fit] | 
CCN(CC)c1ccc(/C=C/C(=O)c2ccc(Br)cc2)cc1 | inconclusive: 0.891 µM [fluorescent, side channel, full curve] | 
CCOc1ccc(-c2cc(NC(=O)c3c(F)cccc3F)c(C(=O)O)s2)cc1 | inconclusive: 8.91 µM [quencher, side channel, single point] | 
COC(CNC(=O)c1ccc(CS(=O)(=O)c2c(Cl)cccc2Cl)o1)OC | inconclusive: 14.1 µM [fluorescent, side channel, single point] | 
Cc1ccc(NC(=O)c2ccccc2-c2cc(C)no2)cc1 | inconclusive: 28.2 µM [inhibitor, partial curve] | 
CCCCC(NC(=O)Cc1c(C)c2cc3c4c(oc3c(C)c2oc1=O)CCCC4)C(=O)O (configuration not stated) | inconclusive: 35.5 µM [inhibitor, single point] | 
COc1cccc(Cn2cccc(NC(=O)Nc3ccccc3C)c2=O)c1 | inconclusive: 35.5 µM [quencher, side channel, partial curve] | 
Cc1ccccc1N1CC(C(=O)Nc2nnc(SCc3ccccn3)s2)CC1=O (configuration not stated) | inconclusive: 20 µM [fluorescent, side channel, partial curve] | 
O=C(N/N=C/c1sc(N2CCCCC2)nc1-c1cccs1)c1cccnc1 | inconclusive: 28.2 µM [fluorescent, side channel, partial curve] | 
O=C(Oc1coc(CSc2ncccn2)cc1=O)c1ccccc1[N+](=O)[O-] | inconclusive: 3.98 µM [quencher, side channel, full curve] | 
Cc1ccccc1Cn1cccc1/C=C1/C(=N)N2C=CSC2=NC1=O | inconclusive: 79.4 µM [fluorescent, side channel, single point] | 
CC(=O)N=c1c(C#N)cc2c(=O)n3ccccc3nc2n1Cc1ccccc1 | inconclusive: 25.1 µM [fluorescent, side channel, partial curve, poor fit] | 
O=C1C2=C(NC(=S)NC2c2ccc(Cl)cc2)NC(c2ccc(Cl)cc2)N1c1ccc(Cl)cc1 (configuration not stated) | inconclusive: 31.6 µM [quencher, side channel, partial curve] | 
Nc1ccc2cc3ccc(N)cc3nc2c1 | inconclusive: 44.7 µM [fluorescent, side channel, full curve, poor fit] | 

Part of the list above, set out differently.
O=C(Oc1coc(CSc2ncccn2)cc1=O)c1ccccc1[N+](=O)[O-]
  Potency: inconclusive: 3.98 µM [quencher, side channel, full curve]
Cc1ccccc1Cn1cccc1/C=C1/C(=N)N2C=CSC2=NC1=O
  Potency: inconclusive: 79.4 µM [fluorescent, side channel, single point]
CC(=O)N=c1c(C#N)cc2c(=O)n3ccccc3nc2n1Cc1ccccc1
  Potency: inconclusive: 25.1 µM [fluorescent, side channel, partial curve, poor fit]

More compounds.

Compound | Potency | activity change, negative = inhibition
CCOc1ccc(C(=O)N(Cc2ccc(OC)cc2)Cc2cc3cc(OC)ccc3[nH]c2=O)cc1 |  | inactive: 15.5%
COC(CNc1nc(SC)nc2sc3c(c12)CCN(C)C3)OC | inconclusive: 6.31 µM [fluorescent, side channel, partial curve] | 
CCOC1(OCC)N=C(N)C2(C#N)C(c3cccc(OC)c3OC)C12C#N (configuration not stated) | inconclusive: 89.1 µM [inhibitor, single point] | 
CCOc1nc2ccccc2nc1NS(=O)(=O)c1ccc(Cl)cc1 | inconclusive: 12.6 µM [inhibitor, single point] | 
O=C(NCc1ccco1)c1ccc2c(c1)OCCO2 | inconclusive: 14.1 µM [quencher, single point] | 
Cc1ccc(Nc2c(-c3ccccn3)nc3cccc(C)n23)cc1 | inconclusive: 35.5 µM [quencher, side channel, partial curve] | 
Cc1ccc(Nc2nnc(SCC(=O)Nc3ncc(S(=O)(=O)c4ccc([N+](=O)[O-])cc4)s3)s2)cc1 |  | inactive: 6.52%
Cc1ccc(/C(O)=C/c2nc3cc(C)ccc3oc2=O)cc1 | inconclusive: 35.5 µM [fluorescent, side channel, single point] | 
COc1ccc(C(=O)NC(=S)Nc2ccc(N3CCN(C(C)=O)CC3)cc2)cc1[N+](=O)[O-] |  | inactive: -22.5%
N#CCN1C(=O)C(=O)N(Cc2cccc(Cl)c2)C1=O | inconclusive: 8.91 µM [fluorescent, side channel, partial curve] | 
CCOC(=O)c1ccc(N2C(=O)C3C(C2=O)C(C(=O)c2ccc(Cl)cc2)N2CCCC32)cc1 (configuration not stated) | inconclusive: 56.2 µM [fluorescent, side channel, single point] | 
CC(C(Sc1ccccc1N)c1ccccc1)[N+](=O)[O-] (configuration not stated) | inconclusive: 20 µM [inhibitor, partial curve] | 
O=C(C1=C(O)C(=O)N(c2nccs2)C1c1ccccc1)c1cc2ccccc2o1 (configuration not stated) | inconclusive: 3.98 µM [fluorescent, side channel, full curve] | 
Cc1cc(C)nc(NN2C(=O)/C(=C/c3ccc(O)cc3)SC2=S)n1 | inconclusive: 70.8 µM [fluorescent, side channel, single point] | 
COc1ccc(OCC(O)CN2CCN(c3ccc(OC)cc3)CC2)cc1 (configuration not stated) |  | inactive: -5.65%
COc1cccc(/C=N/NC(=S)NC2CC3CC2C2C=CCC32)c1O (configuration not stated) | inconclusive: 100 µM [inhibitor, partial curve] | 
CCC(C)c1ccc(NC(=O)NCc2cccnc2)cc1 (configuration not stated) | inconclusive: 7.94 µM [quencher, side channel, single point] | 
Cc1ccc(/C=C(\NC(=O)c2ccc(C)cc2)C(=O)NCCCn2ccnc2)cc1 |  | inactive: -1.45%
COc1ccc(C(=O)Nc2nnc(SCC(=O)NCc3ccco3)s2)cc1OC | inconclusive: 35.5 µM [fluorescent, side channel, partial curve] | 
CCOC(=O)c1c2ccc(OCC(=O)N/N=C/c3ccc(Cl)cc3)cc2n2ccccc12 | inconclusive: 70.8 µM [inhibitor, single point] | 
Cc1ccc(F)c(NC(=S)Nc2cccc3ccccc23)c1 | inconclusive: 7.94 µM [fluorescent, single point] | 

Compound | Potency | activity change, negative = inhibition
Cc1cc(C)c2c(n1)sc1c(O)cc(=O)[nH]c12 |  | inactive: 7.94%
CCCCCNC(=O)CCn1c(=O)oc2ccccc21 |  | inactive: -1.28%
CN(C(=S)NC1CCCCC1)C1(c2ccccc2Cl)CCCCC1=O (configuration not stated) | inconclusive: 14.1 µM [inhibitor, single point] | 
Nc1nc(N)c2cc(Sc3ccc4ccccc4c3)ccc2n1 | inconclusive: 70.8 µM [quencher, side channel, single point] | 
CSc1nnc(-c2cnccn2)n1C |  | inactive: -3.09%
N#C/C(=C/c1ccc(N2CCOCC2)o1)c1ccc(Cl)cc1 | inconclusive: 7.94 µM [fluorescent, side channel, partial curve] | 
Cn1c2c(c3ccccc31)CCN1CCC[C@]21c1ccccc1 | inconclusive: 10 µM [inhibitor, single point] | 
Cc1cccc(N2CCN(C(=O)c3ccc(NS(=O)(=O)c4ccc5[nH]c(=O)[nH]c5c4)cc3)CC2)c1C |  | inactive: 9.96%
O=C(C1CCCN(CCCc2ccccc2)C1)N1CCCCC1 (configuration not stated) | inconclusive: 25.1 µM [fluorescent, side channel, partial curve, poor fit] | 
CCC(C)c1ccc(C(C)NC(=S)NC2CCCCC2)cc1 (configuration not stated) | inconclusive: 14.1 µM [quencher, side channel, single point] | 
CCOCCCNC(=O)C1CCN(S(=O)(=O)N2CCCC2)CC1 | inconclusive: 10 µM [fluorescent, side channel, full curve] | 
O=C1OC(/C(=C\Nc2ccc(F)cc2F)[N+](=O)[O-])c2ccccc21 (configuration not stated) | inconclusive: 35.5 µM [inhibitor, partial curve] | 
COC(=O)CN1C(=O)COc2ccc(S(=O)(=O)N3CCCC3)cc21 | inconclusive: 1.12 µM [fluorescent, side channel, full curve, poor fit] | 
CC(C)C(=O)Nc1ccc(-c2nc3cccnc3o2)cc1 |  | inactive: 12.7%
OC(COc1c(F)cc(Br)cc1F)CN1CCOCC1 (configuration not stated) | inconclusive: 70.8 µM [inhibitor, single point] | 
CCOc1ccc(S(=O)(=O)Nc2ncn[nH]2)cc1 |  | inactive: -0.986%
Cc1ccc(SC(CC(=O)c2ccc(C)cc2)C(=O)O)cc1 (configuration not stated) | inconclusive: 28.2 µM [inhibitor, partial curve, poor fit] | 
CC1CC(C)CN(CCCCOc2ccc([N+](=O)[O-])cc2)C1 (configuration not stated) | inconclusive: 56.2 µM [fluorescent, side channel, single point] | 
O=S(=O)(Nc1cccc(-c2ccc(N3CCCCCC3)nn2)c1)c1ccc(C(F)(F)F)cc1 |  | inactive: 27.1%
Cc1ccccc1Nc1nnc(SCc2nc3ccccc3c(=O)[nH]2)s1 |  | inactive: -10.6%
